These are yes or no findings as the source states them, for the method shown. Tags and fused reporters may be left off the sequences shown.
Assays:
Assay in all cases: pull-down; GST-fusion fragments of CGN or CGNL1 as baits; NM2 rod fragments purified from bacteria as preys; IB with anti-NM2 antibodies (Fig. S1 C, D); both purified
[1] = biological target: T1, GST-CGNL1 (591–882), Rod1 of CGNL1 (UniProt Q0VF96)
T1 sequence: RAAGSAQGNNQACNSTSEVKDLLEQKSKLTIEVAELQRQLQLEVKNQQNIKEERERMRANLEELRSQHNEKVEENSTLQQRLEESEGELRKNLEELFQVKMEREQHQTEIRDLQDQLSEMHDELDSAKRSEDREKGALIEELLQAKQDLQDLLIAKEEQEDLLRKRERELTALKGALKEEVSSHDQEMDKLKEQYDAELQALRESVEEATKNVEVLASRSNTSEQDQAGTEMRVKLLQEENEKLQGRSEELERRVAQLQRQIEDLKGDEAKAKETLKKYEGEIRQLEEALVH

Amino acid sequences for entries named in this document (tags omitted). A change or cut given only in a name is not applied to a line headed by its entry.
UniProt Q6URW6: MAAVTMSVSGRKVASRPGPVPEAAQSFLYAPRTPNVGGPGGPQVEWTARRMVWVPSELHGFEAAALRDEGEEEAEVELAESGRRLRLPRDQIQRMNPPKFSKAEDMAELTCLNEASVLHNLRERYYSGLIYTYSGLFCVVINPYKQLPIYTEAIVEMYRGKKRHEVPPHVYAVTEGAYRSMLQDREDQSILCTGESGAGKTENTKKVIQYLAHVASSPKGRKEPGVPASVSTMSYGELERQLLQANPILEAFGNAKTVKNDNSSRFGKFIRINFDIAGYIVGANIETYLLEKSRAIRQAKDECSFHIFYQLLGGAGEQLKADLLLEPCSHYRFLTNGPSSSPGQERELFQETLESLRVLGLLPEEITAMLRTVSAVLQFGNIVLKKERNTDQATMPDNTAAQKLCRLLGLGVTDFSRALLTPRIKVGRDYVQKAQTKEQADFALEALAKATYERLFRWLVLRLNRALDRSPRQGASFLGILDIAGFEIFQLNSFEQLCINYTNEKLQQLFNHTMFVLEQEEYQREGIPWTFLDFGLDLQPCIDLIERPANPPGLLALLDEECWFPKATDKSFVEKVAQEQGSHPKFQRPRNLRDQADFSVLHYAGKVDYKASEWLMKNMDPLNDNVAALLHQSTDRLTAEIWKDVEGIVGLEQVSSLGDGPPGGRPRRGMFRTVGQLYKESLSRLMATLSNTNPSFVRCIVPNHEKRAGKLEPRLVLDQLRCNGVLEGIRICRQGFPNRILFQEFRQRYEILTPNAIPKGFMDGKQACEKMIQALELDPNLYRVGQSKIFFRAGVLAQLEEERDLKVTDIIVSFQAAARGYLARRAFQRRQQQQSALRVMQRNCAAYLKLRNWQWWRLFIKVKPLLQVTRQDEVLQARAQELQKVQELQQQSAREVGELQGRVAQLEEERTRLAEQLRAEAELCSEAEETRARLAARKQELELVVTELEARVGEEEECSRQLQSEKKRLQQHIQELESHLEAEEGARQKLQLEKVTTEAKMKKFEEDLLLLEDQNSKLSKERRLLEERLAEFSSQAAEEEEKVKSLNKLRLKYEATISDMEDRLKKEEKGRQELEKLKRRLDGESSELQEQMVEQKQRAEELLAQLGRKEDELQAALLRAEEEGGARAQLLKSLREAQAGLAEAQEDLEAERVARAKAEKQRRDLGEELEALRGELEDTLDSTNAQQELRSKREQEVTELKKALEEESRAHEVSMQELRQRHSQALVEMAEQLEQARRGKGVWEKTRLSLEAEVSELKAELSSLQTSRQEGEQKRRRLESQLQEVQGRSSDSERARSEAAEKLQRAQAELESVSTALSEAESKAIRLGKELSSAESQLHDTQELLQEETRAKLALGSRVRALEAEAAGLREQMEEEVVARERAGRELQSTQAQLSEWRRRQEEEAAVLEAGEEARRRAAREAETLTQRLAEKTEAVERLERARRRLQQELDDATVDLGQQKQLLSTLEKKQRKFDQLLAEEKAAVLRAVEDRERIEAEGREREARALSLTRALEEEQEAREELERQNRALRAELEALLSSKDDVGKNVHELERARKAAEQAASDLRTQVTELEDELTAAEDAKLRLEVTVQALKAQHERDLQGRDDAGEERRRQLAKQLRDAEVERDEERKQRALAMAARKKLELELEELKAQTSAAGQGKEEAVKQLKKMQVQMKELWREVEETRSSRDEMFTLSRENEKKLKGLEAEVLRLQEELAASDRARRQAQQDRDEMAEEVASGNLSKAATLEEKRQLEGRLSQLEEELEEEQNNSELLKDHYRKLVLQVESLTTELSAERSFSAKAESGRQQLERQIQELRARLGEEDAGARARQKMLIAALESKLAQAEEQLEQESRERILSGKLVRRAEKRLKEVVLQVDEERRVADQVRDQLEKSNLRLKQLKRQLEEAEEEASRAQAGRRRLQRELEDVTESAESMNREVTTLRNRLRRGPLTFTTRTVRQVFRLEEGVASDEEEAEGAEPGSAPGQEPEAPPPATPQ

[2] = biological target: T2, GST-CGN (1015–1203) (UniProt Q9P2M7)
T2 sequence: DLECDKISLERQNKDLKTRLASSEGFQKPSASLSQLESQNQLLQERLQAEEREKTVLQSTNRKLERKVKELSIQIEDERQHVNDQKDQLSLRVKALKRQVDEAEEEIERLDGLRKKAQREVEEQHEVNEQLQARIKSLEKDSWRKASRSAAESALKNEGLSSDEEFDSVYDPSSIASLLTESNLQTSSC

[3] = biological target: T3, GST-hCGNL1 (1105–1302) (human) (UniProt Q0VF96)
T3 sequence: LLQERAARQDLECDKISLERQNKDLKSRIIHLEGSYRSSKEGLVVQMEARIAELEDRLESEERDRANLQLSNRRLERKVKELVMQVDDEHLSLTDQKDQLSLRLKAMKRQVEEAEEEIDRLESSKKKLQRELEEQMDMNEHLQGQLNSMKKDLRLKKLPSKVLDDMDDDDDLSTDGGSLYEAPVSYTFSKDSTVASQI

Measured: binding

mNM2C rod (1297–2000), purified (from UniProt Q6URW6) (domain or fragment)
no binding: all assays above
